Data published in the supplement of paper PMC10849652.
The list shows a part of the results.

Amino acid sequences for entries named in this document (tags omitted). A change or cut given only in a name is not applied to a line headed by its entry.
UniProt Q9Y2S6, whole entry, looked up: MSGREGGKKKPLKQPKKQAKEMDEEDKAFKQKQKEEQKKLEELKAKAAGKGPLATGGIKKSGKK
UniProt Q9UNS1: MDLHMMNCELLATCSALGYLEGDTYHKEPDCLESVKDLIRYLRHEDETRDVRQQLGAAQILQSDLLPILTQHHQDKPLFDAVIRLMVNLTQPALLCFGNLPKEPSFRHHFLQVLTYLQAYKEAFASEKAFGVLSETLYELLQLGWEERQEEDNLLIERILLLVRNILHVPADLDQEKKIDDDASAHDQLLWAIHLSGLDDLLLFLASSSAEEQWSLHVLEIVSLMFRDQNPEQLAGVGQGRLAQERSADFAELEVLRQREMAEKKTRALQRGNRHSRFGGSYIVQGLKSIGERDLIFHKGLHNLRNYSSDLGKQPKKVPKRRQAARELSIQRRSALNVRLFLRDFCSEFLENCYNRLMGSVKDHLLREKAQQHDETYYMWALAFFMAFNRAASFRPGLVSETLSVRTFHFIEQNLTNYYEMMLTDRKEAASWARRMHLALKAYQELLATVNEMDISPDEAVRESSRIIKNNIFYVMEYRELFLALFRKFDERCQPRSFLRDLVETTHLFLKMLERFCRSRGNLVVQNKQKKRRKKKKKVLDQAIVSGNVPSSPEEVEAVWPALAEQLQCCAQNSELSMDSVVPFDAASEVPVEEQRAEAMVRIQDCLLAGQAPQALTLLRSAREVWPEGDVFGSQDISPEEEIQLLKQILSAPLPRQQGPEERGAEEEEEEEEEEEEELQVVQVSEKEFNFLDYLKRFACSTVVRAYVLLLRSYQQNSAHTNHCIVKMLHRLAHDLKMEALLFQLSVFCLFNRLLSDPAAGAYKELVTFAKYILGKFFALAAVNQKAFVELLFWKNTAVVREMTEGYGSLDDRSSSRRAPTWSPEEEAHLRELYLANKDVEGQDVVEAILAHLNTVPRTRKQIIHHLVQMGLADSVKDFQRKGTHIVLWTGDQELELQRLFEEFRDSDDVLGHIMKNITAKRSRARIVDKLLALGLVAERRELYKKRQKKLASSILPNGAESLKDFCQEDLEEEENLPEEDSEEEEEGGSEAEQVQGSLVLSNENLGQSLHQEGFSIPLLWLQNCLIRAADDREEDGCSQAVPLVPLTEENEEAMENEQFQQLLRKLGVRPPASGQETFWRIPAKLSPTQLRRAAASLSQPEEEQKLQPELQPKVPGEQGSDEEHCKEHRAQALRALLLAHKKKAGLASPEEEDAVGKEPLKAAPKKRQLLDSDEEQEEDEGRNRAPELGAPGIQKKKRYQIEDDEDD
UniProt Q3ZCQ8: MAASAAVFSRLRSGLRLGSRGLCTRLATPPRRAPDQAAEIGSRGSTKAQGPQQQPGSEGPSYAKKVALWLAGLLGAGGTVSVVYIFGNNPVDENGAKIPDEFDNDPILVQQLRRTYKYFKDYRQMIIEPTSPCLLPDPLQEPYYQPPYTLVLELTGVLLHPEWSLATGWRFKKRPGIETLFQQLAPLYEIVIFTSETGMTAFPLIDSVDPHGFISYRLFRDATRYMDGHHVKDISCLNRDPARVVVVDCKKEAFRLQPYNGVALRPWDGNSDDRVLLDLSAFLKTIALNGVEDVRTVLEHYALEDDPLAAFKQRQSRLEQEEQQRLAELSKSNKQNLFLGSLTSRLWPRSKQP
UniProt Q6I9Y2: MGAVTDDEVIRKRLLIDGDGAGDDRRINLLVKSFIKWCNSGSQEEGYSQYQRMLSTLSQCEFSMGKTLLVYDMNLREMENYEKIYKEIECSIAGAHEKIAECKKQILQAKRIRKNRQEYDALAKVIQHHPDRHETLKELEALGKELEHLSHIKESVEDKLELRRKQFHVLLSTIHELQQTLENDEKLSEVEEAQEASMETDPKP
UniProt Q9BSF4: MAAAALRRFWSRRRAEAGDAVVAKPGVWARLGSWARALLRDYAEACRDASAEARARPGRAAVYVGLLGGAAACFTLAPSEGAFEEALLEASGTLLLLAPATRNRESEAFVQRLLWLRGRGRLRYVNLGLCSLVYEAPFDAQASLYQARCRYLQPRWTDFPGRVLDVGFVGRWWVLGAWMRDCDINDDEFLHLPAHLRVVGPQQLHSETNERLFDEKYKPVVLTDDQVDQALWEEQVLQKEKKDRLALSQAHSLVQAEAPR
UniProt Q9P0S9: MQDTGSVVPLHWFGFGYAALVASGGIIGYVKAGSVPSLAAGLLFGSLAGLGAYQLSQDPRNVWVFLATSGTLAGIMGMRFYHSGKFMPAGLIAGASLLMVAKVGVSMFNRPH
UniProt O43615: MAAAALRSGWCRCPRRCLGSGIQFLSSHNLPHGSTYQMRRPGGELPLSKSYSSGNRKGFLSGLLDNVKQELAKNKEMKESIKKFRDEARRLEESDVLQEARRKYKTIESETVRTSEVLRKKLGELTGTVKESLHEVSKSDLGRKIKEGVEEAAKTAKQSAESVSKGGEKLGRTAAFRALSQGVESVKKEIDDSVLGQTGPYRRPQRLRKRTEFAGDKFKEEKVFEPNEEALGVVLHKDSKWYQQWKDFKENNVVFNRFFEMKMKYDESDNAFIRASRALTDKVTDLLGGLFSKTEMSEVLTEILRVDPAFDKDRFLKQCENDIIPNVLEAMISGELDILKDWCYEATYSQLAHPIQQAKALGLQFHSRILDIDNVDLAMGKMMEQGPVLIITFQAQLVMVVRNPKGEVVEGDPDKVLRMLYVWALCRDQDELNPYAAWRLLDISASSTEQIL
UniProt Q9BVK6: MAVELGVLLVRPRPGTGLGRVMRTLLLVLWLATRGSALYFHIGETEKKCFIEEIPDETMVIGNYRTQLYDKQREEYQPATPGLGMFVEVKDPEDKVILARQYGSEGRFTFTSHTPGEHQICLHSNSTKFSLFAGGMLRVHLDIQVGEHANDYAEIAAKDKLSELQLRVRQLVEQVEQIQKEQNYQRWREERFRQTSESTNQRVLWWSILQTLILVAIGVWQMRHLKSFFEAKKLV
UniProt Q9Y490: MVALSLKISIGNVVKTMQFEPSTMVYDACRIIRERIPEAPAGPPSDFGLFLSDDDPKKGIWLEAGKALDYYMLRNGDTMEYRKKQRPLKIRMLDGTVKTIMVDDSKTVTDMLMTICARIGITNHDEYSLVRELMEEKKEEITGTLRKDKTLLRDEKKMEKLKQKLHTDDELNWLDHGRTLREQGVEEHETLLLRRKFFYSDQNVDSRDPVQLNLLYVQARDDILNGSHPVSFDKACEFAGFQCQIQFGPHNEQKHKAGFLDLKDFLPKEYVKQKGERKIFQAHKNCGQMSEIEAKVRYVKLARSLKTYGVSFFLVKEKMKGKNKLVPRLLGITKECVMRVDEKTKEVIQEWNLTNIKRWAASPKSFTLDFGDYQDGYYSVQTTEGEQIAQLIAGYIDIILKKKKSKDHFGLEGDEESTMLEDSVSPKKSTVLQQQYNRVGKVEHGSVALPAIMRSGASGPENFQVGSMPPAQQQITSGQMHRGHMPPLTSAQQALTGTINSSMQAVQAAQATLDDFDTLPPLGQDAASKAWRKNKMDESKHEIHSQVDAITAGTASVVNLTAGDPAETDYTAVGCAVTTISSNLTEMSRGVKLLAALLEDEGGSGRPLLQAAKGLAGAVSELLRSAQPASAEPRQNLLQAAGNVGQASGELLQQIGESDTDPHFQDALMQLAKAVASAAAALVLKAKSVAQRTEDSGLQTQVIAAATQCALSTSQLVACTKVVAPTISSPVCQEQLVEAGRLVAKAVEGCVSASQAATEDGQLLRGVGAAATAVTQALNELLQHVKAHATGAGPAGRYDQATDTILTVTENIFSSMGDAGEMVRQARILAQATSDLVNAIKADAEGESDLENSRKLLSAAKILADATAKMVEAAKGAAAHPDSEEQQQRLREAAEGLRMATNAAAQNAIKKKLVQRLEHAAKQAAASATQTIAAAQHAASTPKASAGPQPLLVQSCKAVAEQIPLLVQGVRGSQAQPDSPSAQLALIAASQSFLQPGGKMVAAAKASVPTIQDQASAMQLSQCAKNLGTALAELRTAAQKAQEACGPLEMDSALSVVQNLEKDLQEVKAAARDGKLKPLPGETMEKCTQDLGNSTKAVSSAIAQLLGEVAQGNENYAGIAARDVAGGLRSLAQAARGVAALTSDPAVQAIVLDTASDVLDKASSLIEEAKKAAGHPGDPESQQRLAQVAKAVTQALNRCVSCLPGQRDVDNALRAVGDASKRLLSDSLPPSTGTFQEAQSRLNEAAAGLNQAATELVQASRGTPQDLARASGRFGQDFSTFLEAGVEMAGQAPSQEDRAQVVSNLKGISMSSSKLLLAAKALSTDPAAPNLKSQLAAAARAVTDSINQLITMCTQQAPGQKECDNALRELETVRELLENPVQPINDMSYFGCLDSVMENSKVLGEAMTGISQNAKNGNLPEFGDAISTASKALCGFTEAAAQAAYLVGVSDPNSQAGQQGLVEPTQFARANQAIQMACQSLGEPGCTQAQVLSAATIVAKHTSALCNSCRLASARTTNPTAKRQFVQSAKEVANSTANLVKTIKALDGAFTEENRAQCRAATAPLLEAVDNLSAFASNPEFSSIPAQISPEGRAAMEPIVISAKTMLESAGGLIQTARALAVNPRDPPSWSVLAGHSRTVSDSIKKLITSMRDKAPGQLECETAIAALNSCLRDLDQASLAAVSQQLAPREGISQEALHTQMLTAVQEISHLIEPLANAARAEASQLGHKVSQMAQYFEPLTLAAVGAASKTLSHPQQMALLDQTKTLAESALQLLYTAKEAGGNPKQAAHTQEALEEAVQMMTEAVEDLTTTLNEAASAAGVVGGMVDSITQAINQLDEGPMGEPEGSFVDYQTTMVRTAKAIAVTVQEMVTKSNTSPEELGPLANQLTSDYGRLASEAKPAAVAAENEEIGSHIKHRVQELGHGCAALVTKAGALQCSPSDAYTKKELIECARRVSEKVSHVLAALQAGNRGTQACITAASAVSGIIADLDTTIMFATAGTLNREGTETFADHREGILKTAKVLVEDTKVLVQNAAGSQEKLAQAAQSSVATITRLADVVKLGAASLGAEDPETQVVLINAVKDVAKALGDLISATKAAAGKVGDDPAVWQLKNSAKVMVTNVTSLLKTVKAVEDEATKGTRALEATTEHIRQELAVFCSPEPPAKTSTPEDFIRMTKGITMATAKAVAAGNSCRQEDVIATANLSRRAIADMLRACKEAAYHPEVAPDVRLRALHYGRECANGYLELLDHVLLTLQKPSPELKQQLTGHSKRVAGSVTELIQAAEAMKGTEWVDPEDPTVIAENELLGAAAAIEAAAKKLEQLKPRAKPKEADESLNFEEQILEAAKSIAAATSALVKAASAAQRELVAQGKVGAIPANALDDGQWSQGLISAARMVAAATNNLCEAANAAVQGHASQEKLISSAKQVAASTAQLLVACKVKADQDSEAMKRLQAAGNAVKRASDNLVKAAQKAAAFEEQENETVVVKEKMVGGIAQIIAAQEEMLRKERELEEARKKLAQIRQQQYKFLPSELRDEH
UniProt O43422: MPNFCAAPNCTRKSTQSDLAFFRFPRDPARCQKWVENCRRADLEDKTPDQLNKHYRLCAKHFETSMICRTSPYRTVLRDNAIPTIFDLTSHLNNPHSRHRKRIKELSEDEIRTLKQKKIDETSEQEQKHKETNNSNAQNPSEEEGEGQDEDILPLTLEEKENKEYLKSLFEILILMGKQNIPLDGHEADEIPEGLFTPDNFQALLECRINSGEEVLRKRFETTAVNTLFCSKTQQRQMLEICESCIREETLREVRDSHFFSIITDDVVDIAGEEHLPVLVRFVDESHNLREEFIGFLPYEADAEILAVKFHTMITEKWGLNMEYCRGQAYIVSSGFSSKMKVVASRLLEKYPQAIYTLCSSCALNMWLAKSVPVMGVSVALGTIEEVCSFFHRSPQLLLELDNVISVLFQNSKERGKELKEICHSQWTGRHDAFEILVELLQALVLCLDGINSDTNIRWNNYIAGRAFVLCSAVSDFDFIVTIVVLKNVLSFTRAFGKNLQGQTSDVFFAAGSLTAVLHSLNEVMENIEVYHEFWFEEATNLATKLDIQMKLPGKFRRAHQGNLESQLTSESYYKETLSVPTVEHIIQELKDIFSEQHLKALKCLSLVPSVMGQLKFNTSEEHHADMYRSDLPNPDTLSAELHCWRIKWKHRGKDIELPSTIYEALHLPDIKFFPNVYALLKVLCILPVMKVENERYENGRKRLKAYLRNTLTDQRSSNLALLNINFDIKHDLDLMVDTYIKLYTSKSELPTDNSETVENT
UniProt Q9H061: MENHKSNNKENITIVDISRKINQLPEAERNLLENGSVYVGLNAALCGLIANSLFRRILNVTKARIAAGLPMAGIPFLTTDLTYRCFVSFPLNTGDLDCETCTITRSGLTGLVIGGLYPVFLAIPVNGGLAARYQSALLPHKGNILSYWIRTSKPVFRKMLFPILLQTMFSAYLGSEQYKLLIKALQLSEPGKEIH
UniProt Q8TBQ9: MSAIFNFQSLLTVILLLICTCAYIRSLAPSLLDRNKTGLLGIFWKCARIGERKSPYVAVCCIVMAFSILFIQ
UniProt Q96I45: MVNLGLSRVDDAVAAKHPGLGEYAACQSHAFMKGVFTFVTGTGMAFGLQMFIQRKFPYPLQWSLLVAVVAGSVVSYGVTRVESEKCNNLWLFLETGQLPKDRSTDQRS

What was measured:
Test in all cases: log2 fold change, soluble protein after heating vs DMSO (PISA); higher = thermal stabilisation; K562 lysate, 10 uM; active = over 0.2 and 3.5 SD of the protein, either way, in both replicates (recomputed)
[1] = compound: C1=CC=C(C=C1)[C@H](COC2=CC3=C(C=C2)NC(=O)N3)NC(=O)C4=CC=CN(C4=O)CC5=CC(=C(C=C5)F)F
In short: (§1)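 Log-two fold change in thermal stability relative to solvent controls is reported from duplicates. For each sample, crude K562 extract from dounce-homogenised pellets in PBS pH 7.4 with 1 mM MgCl2, at 1 mg/mL protein, was treated with 10 μM compound for 30 min. Aliquots heated for 3 min across 48°C-58°C were pooled, brought to 0.5% NP-40 at 4°C and cleared at 21,000xg for 90 min. The supernatant was quantified by TMTpro 16plex LC-MS/MS with channel sums equalised.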

[2] = compound: CC1=C(SC2=C1C(=N[C@H](C3=NN=C(N32)C)CC(=O)N)C4=CC=C(C=C4)Cl)C
In short: as §1

[3] = compound: CC1=C2C(=CC=C1)N=C(N(C2=O)C3=CC=CC=C3C)CN4C=NC5=C(N=CN=C54)N
In short: as §1

[4] = compound: Cc1sc2c(c1C)C(c1ccc(Cl)cc1)=N[C@@H](CC(=O)OC(C)(C)C)c1nnc(C)n1-2
In short: as §1

[5] = compound: c1ccc([C@@H]2C[C@H]2NC2CCNCC2)cc1
In short: as §1

Measured: log2 fold change

TMEM135 (UniProt Q86UB9)
inactive: [1] 0.063 | [2] -0.041 | [3] -0.062 | [4] -0.057 | [5] 0.082

TMEM161A (UniProt Q9NX61)
inactive: [1] -0.082 | [2] -0.208 | [3] 0.139 | [4] -0.137 | [5] 0.175

TIMMDC1 (UniProt Q9NPL8)
inactive: [1] -0.009 | [2] 0.009 | [3] 0.016 | [4] -0.055 | [5] -0.026

TIMM17B (UniProt O60830)
inactive: [1] 0.044 | [2] 0.003 | [3] -0.045 | [4] -0.052 | [5] -0.048

TM9SF3 (UniProt Q9HD45)
inactive: [1] 0.018 | [2] -0.027 | [3] 0.016 | [4] 0.001 | [5] -0.003

TMA7 (UniProt Q9Y2S6)
inactive: [1] -0.046 | [2] 0.021 | [3] 0.007 | [4] -0.003 | [5] -0.091

THUMPD3 (UniProt Q9BV44)
inactive: [1] 0.004 | [2] 0.012 | [3] -0.008 | [4] -0.008 | [5] -0.028

TIMELESS (UniProt Q9UNS1)
inactive: [1] -0.013 | [2] 0.011 | [3] 0.01 | [4] 0.012 | [5] 0.02

TMEM173 (UniProt Q86WV6)
inactive: [1] -0.072 | [2] 0.081 | [3] 0.018 | [4] -0.065 | [5] 0.008

TMEM115 (UniProt Q12893)
inactive: [1] 0.021 | [2] 0.053 | [3] -0.007 | [4] -0.045 | [5] -0.068

TIMM50 isoform 2 (UniProt Q3ZCQ8)
inactive: [1] -0.035 | [2] 0.015 | [3] 0.01 | [4] -0.006 | [5] 0.004

TGS1 (UniProt Q96RS0)
inactive: [1] -0.051 | [2] 0.017 | [3] 0.017 | [4] -0.018 | [5] -0.027

THOC5 (UniProt Q13769)
inactive: [1] 0.026 | [2] 0.048 | [3] 0.016 | [4] -0.01 | [5] 0.006

TLE5 isoform 2 (UniProt Q08117)
inactive: [1] -0.05 | [2] 0.073 | [3] 0.014 | [4] -0.019 | [5] 0.042

THOC1 (UniProt Q96FV9)
inactive: [1] 0.002 | [2] -0.032 | [3] 0.007 | [4] 0.02 | [5] -0.003

Looked up one by one from the list above, 3 records:
TMEM161A (UniProt Q9NX61)
inactive: [1] -0.082 | [2] -0.208 | [3] 0.139 | [4] -0.137 | [5] 0.175

TMEM115 (UniProt Q12893)
inactive: [1] 0.021 | [2] 0.053 | [3] -0.007 | [4] -0.045 | [5] -0.068

TIMM50 isoform 2 (UniProt Q3ZCQ8)
inactive: [1] -0.035 | [2] 0.015 | [3] 0.01 | [4] -0.006 | [5] 0.004

Next part.

TK1 (UniProt P04183)
inactive: [1] 0.006 | [2] 0.037 | [3] -0.017 | [4] -0.045 | [5] -0.116

THOC7 (UniProt Q6I9Y2)
inactive: [1] -0.033 | [2] 0.044 | [3] -0.027 | [4] 0.011 | [5] 0.044

TIMM29 (UniProt Q9BSF4)
inactive: [1] 0.043 | [2] 0.035 | [3] 0.021 | [4] -0.035 | [5] -0.067

TMEM11 (UniProt P17152)
inactive: [1] -0.013 | [2] -0.107 | [3] -0.006 | [4] -0.024 | [5] 0.015

TICAM2 isoform 2 (UniProt Q86XR7)
inactive: [1] 0.016 | [2] 0.011 | [3] 0.004 | [4] -0.008 | [5] -0.008

TMEM14C (UniProt Q9P0S9)
inactive: [1] -0.131 | [2] -0.031 | [3] 0.14 | [4] -0.015

TMEM106C (UniProt Q9BVX2)
inactive: [1] 0.04 | [2] 0.21

TIMM44 (UniProt O43615)
inactive: [1] -0.062 | [2] 0 | [3] 0.034 | [4] -0.035 | [5] -0.003

TIAL1 isoform 2 (UniProt Q01085)
inactive: [1] 0.068 | [2] 0.017 | [3] -0.02 | [4] 0.031 | [5] -0.021

TMED4 (UniProt Q7Z7H5)
inactive: [1] 0.003 | [2] 0.027 | [3] 0.022 | [4] 0.005 | [5] -0.007

TM7SF3 (UniProt Q9NS93)
inactive: [1] -0.143 | [2] -0.043 | [3] -0.004 | [4] -0.033 | [5] 0.018

TLK1 isoform 2 (UniProt Q9UKI8)
inactive: [1] 0.005 | [2] -0.02 | [3] -0.026 | [4] -0.025 | [5] -0.072

TJP2 isoform 7 (UniProt Q9UDY2)
inactive: [1] 0.025 | [2] -0.009 | [3] 0.06 | [4] 0.035 | [5] 0.032

TM9SF1 (UniProt O15321)
inactive: [1] 0.093 | [2] -0.096 | [3] 0.116 | [4] -0.025

TIMM17A (UniProt Q99595)
inactive: [1] -0.022 | [2] 0.033 | [3] 0.03 | [4] -0.035 | [5] -0.005

TMEM127 (UniProt O75204)
inactive: [1] -0.041 | [2] -0.125 | [3] 0.173 | [4] -0.105

TGFB1 (UniProt P01137)
inactive: [1] 0.018 | [2] 0.02 | [3] -0.011 | [4] -0.022 | [5] -0.023

THAP11 (UniProt Q96EK4)
inactive: [1] -0.008 | [2] -0.151 | [3] -0.144 | [4] -0.02 | [5] 0.058

TMED9 (UniProt Q9BVK6)
inactive: [1] -0.01 | [2] 0.001 | [3] 0.037 | [4] 0.023 | [5] 0.03

THYN1 (UniProt Q9P016)
inactive: [1] 0.021 | [2] 0.008 | [3] 0.002 | [4] 0.016 | [5] 0.036

TLN1 (UniProt Q9Y490)
inactive: [1] -0.001 | [2] 0.003 | [3] -0.012 | [4] 0.009 | [5] 0.003

THAP12 (UniProt O43422)
inactive: [1] -0.01 | [2] 0.058 | [3] 0.018 | [4] -0.016 | [5] 0.087

TMEM126A (UniProt Q9H061)
inactive: [1] 0.02 | [2] 0.002 | [3] -0.03 | [4] 0.001 | [5] 0.028

TMED8 (UniProt Q6PL24)
inactive: [1] 0.009 | [2] 0.039 | [3] 0.023 | [4] 0.004 | [5] 0.024

THAP9 (UniProt Q9H5L6)
inactive: [1] 0.024 | [2] 0.039 | [3] 0.165 | [4] -0.194 | [5] -0.284

TMED10 (UniProt P49755)
inactive: [1] 0.029 | [2] -0.034 | [3] 0.034 | [4] 0.014 | [5] 0.085

TMEM167A (UniProt Q8TBQ9)
inactive: [1] -0.073 | [2] -0.048 | [3] 0.032 | [4] -0.05 | [5] -0.149

TIMM10B (UniProt Q9Y5J6)
inactive: [1] 0.054 | [2] -0.149 | [3] -0.105 | [4] -0.097 | [5] 0.092

TIPIN (UniProt Q9BVW5)
inactive: [1] 0.004 | [2] 0.034 | [3] -0.002 | [4] -0.037 | [5] -0.066

THG1L (UniProt Q9NWX6)
inactive: [1] 0.02 | [2] 0 | [3] 0.029 | [4] -0.027 | [5] 0.025

TIMM23 (UniProt O14925)
inactive: [1] 0.016 | [2] 0.016 | [3] -0.046 | [4] -0.02 | [5] -0.071

TMEM106B (UniProt Q9NUM4)
inactive: [1] -0.034 | [2] 0.014 | [3] -0.038 | [4] -0.049 | [5] 0.031

TMEM141 (UniProt Q96I45)
inactive: [1] 0.051 | [2] -0.063 | [3] -0.038 | [4] -0.088 | [5] -0.032

TM6SF1 (UniProt Q9BZW5)
inactive: [1] 0.238 | [2] -0.036 | [3] 0.018 | [4] -0.006 | [5] -0.058

TIA1 (UniProt P31483)
inactive: [1] 0.03 | [2] 0.025 | [3] 0.028 | [4] 0.049 | [5] 0.024

TMEM120A (UniProt Q9BXJ8)
inactive: [1] -0.083 | [2] -0.003 | [3] 0.316 | [4] -0.198 | [5] 0.046

TMEM186 (UniProt Q96B77)
inactive: [1] 0.023 | [2] 0.004 | [3] -0.168 | [4] 0.057 | [5] 0.164

TGOLN2 isoform 7 (UniProt O43493)
inactive: [1] 0.065 | [2] -0.029 | [3] -0.015 | [4] -0.017 | [5] -0.069
